Measurements published in patent publication US20160083479A1 (AGENCY FOR SCIENCE TECHNOLOGY AND RESEARCH, published 2016).
Results are given in words; binding and its absence hold for the method and conditions named. No end group written: not given here. *: point of attachment. Biotin = O=C1N[C@H]2[C@H](CS[C@H]2CCCCC(=O)*)N1

Columns and labels:
peptide P8 = target: T1, peptide P8; experiment: alanine scan peptide ELISA, 1 mM DTT, A450
T1 sequence (peptide, biotin at the N-terminus, linked by the SGSG linker): SGSGCIFSPQIAEPSQCPD

peptide P1 = target: T2, peptide P1; experiment: alanine scan peptide ELISA, 1 mM DTT, A450
T2 sequence (peptide, biotin at the N-terminus, linked by the SGSG linker): SGSGAIFSPQIEEPSQCPD

B1: mAb 2 (antibody, IgG1, V domains shown)
VH: QVQLKESGGGLVQPGGSLTLSCATSGFTFTDHYMSWVRQPPGKALEWLAFIRNKAKGYTTEYNASVRGRFTISRDNSQNIVYLQMNTLRTEDSATYYCARDGVGIAYWGQGTLVTVSA
VL: SIVMTQSPLSLPVSLGDQASISCRSSQSLENINGNTYLNWYFQKPGQSPQLLIYRVSNRVSGVLDRFSGSGSGTDFTLKITRVEAEDLGVYFCLQVTHVPWTFGGGTKLEIK
notes: Murine monoclonal antibody purified from ascites (or hybridoma supernatant in the first Pepscan); constant regions are not; also called full length murine mAb 2
binding (peptide P8): no binding (tested: 0.05 µg/mL mAb 2) | binding (peptide P1): no binding (tested: 0.05 µg/mL mAb 2)
